According to the supplement of paper PMC12823440, “Inhibitors supercharge kinase turnover through native proteolytic circuits” (Nature, 2025):
Counter-ions that a name gives are not always drawn. The list shows a part of the results. Hit calls seldom repeat between salt and free forms of one compound.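 Kinases were expressed as nanoluciferase fusions in K562 cells and luminescence was read every 4 h between 2 and 18 h as percent of control, DMSO set to 100% and a positive control to 0%. A time point counts as decreased when the signal drops significantly (2 sigma). The hit call is the authors' own, does not follow from the count of time points alone, and its rule is not shown.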

Amino acid sequences for entries named in this document (tags omitted). A change or cut given only in a name is not applied to a line headed by its entry.
UniProt P23458: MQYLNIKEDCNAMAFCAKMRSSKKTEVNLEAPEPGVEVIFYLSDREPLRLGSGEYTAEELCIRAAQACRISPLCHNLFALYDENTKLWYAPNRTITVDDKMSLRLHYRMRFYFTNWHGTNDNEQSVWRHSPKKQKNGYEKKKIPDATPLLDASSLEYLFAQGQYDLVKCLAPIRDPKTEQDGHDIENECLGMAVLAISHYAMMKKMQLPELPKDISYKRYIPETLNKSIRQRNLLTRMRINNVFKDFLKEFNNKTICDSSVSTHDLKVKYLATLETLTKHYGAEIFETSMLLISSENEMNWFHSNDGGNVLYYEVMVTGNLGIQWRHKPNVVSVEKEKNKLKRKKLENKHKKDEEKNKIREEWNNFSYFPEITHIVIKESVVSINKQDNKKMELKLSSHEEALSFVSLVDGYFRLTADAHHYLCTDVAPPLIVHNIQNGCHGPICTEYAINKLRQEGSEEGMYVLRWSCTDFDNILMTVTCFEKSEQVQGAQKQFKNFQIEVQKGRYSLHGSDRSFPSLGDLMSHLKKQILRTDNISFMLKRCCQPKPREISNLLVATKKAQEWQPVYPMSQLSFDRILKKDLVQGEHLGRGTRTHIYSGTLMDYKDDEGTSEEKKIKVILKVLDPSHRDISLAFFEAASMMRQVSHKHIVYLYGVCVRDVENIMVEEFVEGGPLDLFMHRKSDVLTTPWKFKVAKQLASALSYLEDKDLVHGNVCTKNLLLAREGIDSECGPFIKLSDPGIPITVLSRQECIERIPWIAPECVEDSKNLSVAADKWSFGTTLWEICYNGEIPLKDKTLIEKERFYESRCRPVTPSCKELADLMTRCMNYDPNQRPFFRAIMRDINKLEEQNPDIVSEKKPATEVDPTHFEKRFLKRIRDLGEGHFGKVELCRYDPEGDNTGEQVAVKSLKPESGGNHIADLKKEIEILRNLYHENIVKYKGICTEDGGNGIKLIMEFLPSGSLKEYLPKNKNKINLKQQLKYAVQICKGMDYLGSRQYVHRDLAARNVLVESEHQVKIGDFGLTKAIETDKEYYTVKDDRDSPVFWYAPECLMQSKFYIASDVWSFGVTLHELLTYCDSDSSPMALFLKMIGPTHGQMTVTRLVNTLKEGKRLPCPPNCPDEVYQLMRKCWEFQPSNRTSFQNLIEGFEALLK

These compounds were tested against JAK1 (UniProt P23458) (assay: number of time points (of 5) at which kinase-Nluc abundance scored as decreased, DMSO-normalised (count); higher = more persistent destabilization). Details: K562; 2-18 h.

| Structure (SMILES) | number of time points |
| --- | --- |
| C=C(CCC=C(C)C)[C@H]1CC[C@]2(C)[C@@H]1[C@H](O)C[C@@H]1[C@@]3(C)CC[C@H](O[C@@H]4O[C@H](CO)[C@@H](O)[C@H](O)[C@H]4O[C@@H]4O[C@H](CO)[C@@H](O)[C@H](O)[C@H]4O)C(C)(C)[C@@H]3CC[C@]12C [Ginsenoside Rk1] (10 µM) | 0 |
| CCn1c(=O)c(-c2ccc(-c3cncs3)cc2Cl)cc2cnc(Nc3ccc(N4CCN(C)CC4)cc3)nc21 (2.5 µM) | 0 |
| Nc1nccc(Oc2ccc(NC(=O)c3cn(COP(=O)(O)O)cc(-c4ccc(F)cc4)c3=O)cc2F)c1Cl (10 µM) | 0 |
| Cc1cc(-c2cc(OC(=O)c3ccccc3)ccc2Cl)cc2nnc(Nc3ccc(OCCN4CCCC4)cc3)nc12 (0.5 µM) | 0 |
| OC[C@H]1O[C@@H](Oc2cc3c(O)cc(O)cc3[o+]c2-c2cc(O)c(O)c(O)c2)[C@H](O)[C@@H](O)[C@@H]1O [Delphinidin 3-glucoside (chloride)] (10 µM) | 0 |
| O=C(/C=C/c1ccc(O)c(O)c1)c1ccc(O[C@@H]2O[C@H](CO)[C@@H](O)[C@H](O)[C@H]2O)c(O)c1O [Marein] (10 µM) | 0 |
| O=C1Nc2nc(-c3c(O)cccc3OCC3CC3)cc([C@@H]3CCCNC3)c2CO1 [Bay 65-1942 (hydrochloride)] (10 µM) | 3 |
| CC(C)CN(CC(=O)N1CCN(CC(OCc2ccc3ccccc3c2)c2ccc(Cl)cc2Cl)CC1)CC(C)C (stereo not drawn) [LYN-1604 (dihydrochloride)] (2.5 µM) | 0 |
| CCc1cc(O)c(F)cc1-c1ccc2c(-c3nc4c([nH]3)CN(C3CCN(C)CC3)CC4)n[nH]c2c1 [JAK-IN-5 (hydrochloride)] (2 µM) | 3 |
| Cc1ccc(Nc2cc(-c3cccc(N4C(=O)c5ccccc5C4=O)c3)ncn2)cc1NS(C)(=O)=O (10 µM) | 1 |
| C=C1C(=O)O[C@@H]2C[C@@]3(C)CCC[C@H](C)C3=C[C@H]12 [Alantolactone] (10 µM) | 0 |
| C=C(C)C(=O)Nc1cccc(-c2ncnc3[nH]cc(C(=O)OCC)c23)c1 (10 µM) | 0 |
| CNc1nc(Nc2cnn(C3CCN(C4COC4)CC3F)c2Cl)ncc1C(F)(F)F (stereo not drawn) (10 µM) | 0 |
| Cc1cc(Nc2cc(Cl)nc(Oc3ccc([N+](=O)[O-])cc3)n2)n[nH]1 [Autophinib] (2.5 µM) | 0 |
| CC(C)=CC[C@H](O)C1=CC(=O)c2c(O)ccc(O)c2C1=O [(-)-Alkannin] (2.5 µM) | 0 |
| CNCc1ccccc1-c1csc([C@@H](C)Nc2nc(C)nc3cc(OC)c(OC)cc23)c1 (2.5 µM) | 0 |
| COc1ncc(-c2nc(N3CCOCC3)nc3c(CN4CCC(C(C)(C)O)CC4)cc(F)cc23)cc1NS(C)(=O)=O [Linperlisib] (10 µM) | 0 |
| O=C(Nc1ccc(F)cc1F)[C@H](NC(=S)Nc1cc(C(F)(F)F)cc(C(F)(F)F)c1)c1ccccc1 (2.5 µM) | 0 |
| O=C1NC(=O)C(=Cc2ccc(-c3ccc(F)cc3)o2)S1 (stereo in doubt) (10 µM) | 0 |
| CCOc1cc(C(=O)N2CCC(N3CCN(C)CC3)CC2)ccc1Nc1ncc2c(n1)N(C1CCCC1)c1ccccc1C(=O)N2C (10 µM) | 0 |
| OC(COc1ccc(C(F)(F)F)cc1)CN(Cc1ccccc1)Cc1ccccc1 (stereo not drawn) (2.5 µM) | 0 |
| C[C@@H]1C(=O)O[C@H](C)[C@H]1C[C@@H](O)[C@](C)(O)[C@H]1CC[C@@]2(O)C3=CC(=O)[C@@H]4C[C@@H](O)[C@@H](O)C[C@]4(C)[C@H]3CC[C@]12C [Cyasterone] (10 µM) | 0 |
| Cc1c(CN2CCN(C(=O)[C@H](C)O)CC2)sc2c(N3CCOCC3)nc(-c3cnc(N)nc3)nc12 [Apitolisib] (10 µM) | 0 |
| CC(C)(C)NC(=O)c1cncn1C1CCN(c2ccc(-c3nnc(C(F)(F)F)o3)cn2)CC1 (10 µM) | 0 |
| NCc1ccc(Nc2ncc(F)c(Nc3ccccc3)n2)cc1 (10 µM) | 0 |
| COC1(c2sc3c(N4CCOCC4)nc(-c4cnc(N)nc4)nc3c2C)COC1 (2.5 µM) | 0 |
| COc1cc2c[n+](C)c3c4cc5c(cc4ccc3c2cc1OC)OCO5 [Nitidine (chloride)] (2 µM) | 0 |
| N#Cc1ccc2ncnc(NC3CCC(N4CCOCC4)CC3)c2c1 (stereo not drawn) (10 µM) | 0 |

Nothing new here: two of the compounds above.

| Structure (SMILES) | number of time points |
| --- | --- |
| CCOc1cc(C(=O)N2CCC(N3CCN(C)CC3)CC2)ccc1Nc1ncc2c(n1)N(C1CCCC1)c1ccccc1C(=O)N2C (10 µM) | 0 |
| OC(COc1ccc(C(F)(F)F)cc1)CN(Cc1ccccc1)Cc1ccccc1 (stereo not drawn) (2.5 µM) | 0 |
